PubChem BioAssay AID1224830 | NIAID – 2016

- Purpose: 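Regulators of TLR4 signalling towards TNF-alpha in macrophage-like cells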 (primary screen)
- Cell system: human THP-1 monocytic leukaemia cells, TNF dual-luciferase reporter clone, PMA-differentiated to macrophage-like cells
- Knock-down reagent: siRNA pool against human genes, 50 nM
- Time to read-out: LPS for 4 h, given about 3 days after siRNA transfection
- Conditions: bacterial LPS (TLR4 ligand), 10 ng/ml
- Measurement: 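TNF firefly reporter luminescence divided by renilla, normalised to the plate median, then turned into a robust z-score for each replicate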
- Direction: TNF reporter robust z-score: higher = stronger TNF reporter response to LPS
- Call rule: 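a well is active when its z-score exceeds 2.8 or falls below -1.5; control wells carry no call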
In all, the deposit lists about 18,000 reagents; this is a part drawn at random. About 2,900 of them (16%) count as active. 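Calls are made per well; low scores hint the gene aids the LPS response, high scores that it dampens it.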 Unmarked entries are inactive. Repeated entries: four replicate wells of each siRNA pool.

PPARGC1B [SID315461946]
- TNF reporter robust z-score: 1.52

PPARGC1B [SID315461946]
- TNF reporter robust z-score: -0.71

PPARGC1B [SID315461946]
- TNF reporter robust z-score: 0.35

PPARGC1B [SID315461946]
- TNF reporter robust z-score: -0.02

PLXNA2 [SID315450653]
- TNF reporter robust z-score: -0.72

PLXNA2 [SID315450653]
- TNF reporter robust z-score: 0.32

PLXNA2 [SID315450653]
- TNF reporter robust z-score: -1.36

PLXNA2 [SID315450653]
- TNF reporter robust z-score: 0.47

ZNF680 [SID315464071]
- TNF reporter robust z-score: 0.88

ZNF680 [SID315464071]
- TNF reporter robust z-score: 1.8

ZNF680 [SID315464071]
- TNF reporter robust z-score: 1.44

ZNF680 [SID315464071]
- TNF reporter robust z-score: -1.04

IRF9 [SID315454040]
- TNF reporter robust z-score: -1.83 (active)

IRF9 [SID315454040]
- TNF reporter robust z-score: -1.88 (active)

IRF9 [SID315454040]
- TNF reporter robust z-score: -1.85 (active)

IRF9 [SID315454040]
- TNF reporter robust z-score: -1.66 (active)

SLU7 [SID315454199]
- TNF reporter robust z-score: 0.1

SLU7 [SID315454199]
- TNF reporter robust z-score: -0.25

SLU7 [SID315454199]
- TNF reporter robust z-score: 0

SLU7 [SID315454199]
- TNF reporter robust z-score: -1.05

UNC79 [SID315458481]
- TNF reporter robust z-score: -0.87

UNC79 [SID315458481]
- TNF reporter robust z-score: -0.67

UNC79 [SID315458481]
- TNF reporter robust z-score: -0.5

UNC79 [SID315458481]
- TNF reporter robust z-score: -0.28

TEAD3 [SID315451816]
- TNF reporter robust z-score: -0.13

TEAD3 [SID315451816]
- TNF reporter robust z-score: -0.07

TEAD3 [SID315451816]
- TNF reporter robust z-score: -1.05

TEAD3 [SID315451816]
- TNF reporter robust z-score: 0.96

H2BC15 [SID315452493]
- TNF reporter robust z-score: -0.54

H2BC15 [SID315452493]
- TNF reporter robust z-score: 0.21

H2BC15 [SID315452493]
- TNF reporter robust z-score: 0.22

H2BC15 [SID315452493]
- TNF reporter robust z-score: 0.14

Hits, of those listed so far:
IRF9 [SID315454040]
- TNF reporter robust z-score: -1.83 (active)

IRF9 [SID315454040]
- TNF reporter robust z-score: -1.88 (active)

IRF9 [SID315454040]
- TNF reporter robust z-score: -1.85 (active)

IRF9 [SID315454040]
- TNF reporter robust z-score: -1.66 (active)
